Test results: publication PMC10390781
Results are given in words; binding and its absence hold for the method and conditions named. Binding seen in cells or lysates may run through a third protein. Some binding calls cover weakened binding; strength is not graded here.

Biological target: T1, IRF4 transcription factor (human (endogenous in MM.1S)) (UniProt Q15306)
T1 sequence: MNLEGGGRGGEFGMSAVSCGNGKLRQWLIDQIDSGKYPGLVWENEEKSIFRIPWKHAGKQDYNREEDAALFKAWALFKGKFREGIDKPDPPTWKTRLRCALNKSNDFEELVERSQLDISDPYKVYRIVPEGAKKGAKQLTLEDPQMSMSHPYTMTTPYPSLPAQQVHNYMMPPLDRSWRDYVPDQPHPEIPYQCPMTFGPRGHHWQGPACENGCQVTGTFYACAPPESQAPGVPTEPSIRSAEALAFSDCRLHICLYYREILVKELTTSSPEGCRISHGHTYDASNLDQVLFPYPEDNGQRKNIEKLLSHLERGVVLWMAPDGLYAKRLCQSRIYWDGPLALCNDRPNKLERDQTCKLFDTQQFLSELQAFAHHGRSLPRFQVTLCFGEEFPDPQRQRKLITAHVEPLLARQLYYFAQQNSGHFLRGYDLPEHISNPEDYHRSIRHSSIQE
Test: co-IP; 5 ug anti-IRF4 (F-4) agarose conjugate on 50 ug desalted nuclear protein of MM.1S cells exposed to Dex or EtOH for 1 h, overnight at 2-8 C, washed twice with cold PBS; Western blot with IRF4 and GR antibodies

- binding: binds
Substance: glucocorticoid receptor (from UniProt P04150 1-777)
